Source: paper PMC3063778
For at least one entry, the source does not settle the construct or the ends of the probe.

Molecular target: His-MphR (Acinetobacter calcoaceticus PHEA-2) (UniProt F0KIC5)
Test: EMSA
Settings: 5-50 nM His-MphR, 2.5 nM DNA, poly(dI-dC), no phenol stated, 20 mM Tris-HCl pH 7.5, 50 mM KCl, 6 mM DTT, 0.5% Tween-20, 0.05 ug/ul poly(dI-dC), 10 ul, 20 min at 30 C, 8% PAGE in 0.5x TBE, recombinant protein, residues 1-556, protein details: His tag (pET-28), label: 5' IRD800 (M13 primers), probe letters rebuilt from the primers and the genome, part of a longer molecule

“GTACTCCATCAAGACATGGTCTTGAAATTGATGAATGCTCCTTGCTCTCGCTATAAGCTTTACAAAAGCTATGCCAACTTTATTTTTATTATTAAAAACAATTAATTAAAATTTTTATGGAAAGTAAGGTATTTTTAAAATTCACTATTTCATGAATTTTTTTGAATGGTGAAATAGAGATATTCATGATTTGATGAATAGGGTCGTAAAAATTTCTTTTTAGATTGTTTGAGGCTTTAAATGGAGAGATTTAGAAATACTTTTTTAGTATGAAGTTATGTCTTTAAGATACTAGGACATTTATCTGGTTCTTCGATAAGATGAGATAAAACCCAAATGTGTTTAATGGATTAAAACAGATCACTCATGGCTCGA (double strand) [P380]”: binds.
